In PubChem BioAssay AID1508600 (Functional Genomics Laboratory (NCATS/FGL), 2020):
The whole screen tested about 53,000 sequences, of which about 3,700 (7%) were called active.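 How the source made its calls: active means gene knockdowns whose robust z-score for IL-1 alpha signal is at least 2 or at most -2, so actives lie on both sides; inactive means the rest.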 The list shows a part of the results.

experiment: Components of the Cytosolic LPS Sensing Pathway: Gene Identification via Genome-wide siRNA Screen; details: RAW264.7 macrophages, IL-1a HTRF, actives lie on both sides, screened at 100 nM (by protocol), cells primed 5 h with Pam3CSK4 first;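 further: robust z of the log signal after scaling to non-targeting control siRNA wells of the plate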
Method in brief: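 IL-1a HTRF of supernatants after 24 hour LipidA transfection of Pam3CSK4-primed (5 hours) RAW264.7 cells, 48h post-siRNA transfection (100 nM). Scores: percent of plate negative-control median, then log-based robust z-score.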

Sequence	z-score
GCUGCGUGUGAUUGAACCCTT against Coro2b	inactive: 0.939
CCAUUGACUCAGUUAAAACTT against Gipc2	inactive: 0.453
GCUACAUUUCACGACUGCGTT against Dpm3	inactive: 0.314
GGCCUUCCGCAUUUUAUCATT against Zfp729a	active: 2.43
GCAGAUCUUGACUUGUCCATT against Orc6	inactive: -0.852
GGAUAAAAGUCGAAAAACATT against Mcpt1	inactive: 0.246
CCUUGCACUUACCGCUCCUTT against Gm4792	inactive: 0.945
GGAUGUGCAAGGAAUCUCATT against Spint1	inactive: 0.741
CGGAUUCACAAGAACACCUTT against Pramel12	inactive: -0.157
CCACAUCUGAGACUAUUCATT against Crhr1	active: 2.46
GGACAUUGACGCAUAGGGATT against Arsa	inactive: -0.232
GGAUAUGUUUGGUUAUUUCTT against Acbd4	inactive: -0.0997
GGGAUAAAACUCAAUAGUATT against BC043934	inactive: -0.529
GGGACUGGAACAAUAGAGGTT against BC030500	inactive: 0.626
GGUGCUUCACGUCGAUUACTT against Tdrd6	inactive: -1.25
GGCCAUGUAUGGAGAUUACTT against Wfdc21	inactive: -0.0472
GGCAAAACUGUCGAGGUCCTT against Uck1	inactive: 1.85
GGCUAUUAGAAGGAAAACUTT against Olfr8	inactive: 0.864
CGCAAUUUGAAUAUGCCUGTT against Fis1	inactive: 0.142
GGAAGUGGGUAGCAACCAATT against Fam166b	inactive: -0.495
GCUCAUAAAAUGGCUACUGTT against Bex4	inactive: 0.149
GGAAAGUCACUCCUUAUAUTT against Gen1	inactive: 0.361
GGCCUUCACUGAUGAAUGUTT against Pramel32	active: -2.21

Sequence	z-score
CCACUUAUAACUCAUAGUUTT against Ugt2b34	inactive: 0.0725
GCCCAUACUUCCUCUUUGATT against Npsr1	inactive: 0.397
GGUUCUCGGUAAAUCCUGCTT against Slc35b1	inactive: -1.07
GGAACAGAAACUAUUUAGATT against Zfp189	inactive: 0.824
GCUUCUUGAUGCUACUCAATT against Acap1	inactive: -1.96
GGCUGUAUUCAUGACAACCTT against Caskin1	inactive: 0.898
CCAAACACGACGUGAAGGUTT against Ubfd1	inactive: 0.993
GGAAAUAUCCAAGAAUCCCTT against Bbs4	inactive: -0.0724
GGACAUCACGAGCAUUUCATT against Faim2	inactive: -1.6
CGUAGAAAUCCCUCAUUUCTT against Olfr857	inactive: 0.221
GGUUAAAUGUCGUUUAUACTT against Rasa3	inactive: 0.308
GGUCAUUGGUAAUUUUACATT against Clip1	inactive: 0.41
CCGAUGUCGCUGUAAUUGGTT against Acsf3	inactive: 0.0443
GGUAAUGGGACUUGGUAGGTT against Olfr1338	inactive: -0.056
GGAAAGUGCCAUGAAGACCTT against Dbi	inactive: -1.42
CCUAAGCCCUCUAAGGCAATT against Pik3r2	inactive: -0.753
GGUCCAGUUGGAGAUGACATT against Ube2d3	inactive: -1.04
GCGUGGAUUACAUUUCUCUTT against Depdc1a	inactive: 0.392
GAAUGUUCACUGUUGGAUUTT against Olfr622	inactive: 0.154
AAUGCUCAGAAAGAAUAACTT against Sprr2e	inactive: -0.31
GGCCCGUCACAUGAAGAAGTT against Ip6k3	inactive: 0.238
GGUUAAGUCCCUAGGACAUTT against Blzf1	inactive: 0.998
GGCAAAUGGGUUUUCUGCATT against Jam2	inactive: -1.08

Sequence	z-score
GCAAAUAUAAAACUAGAGCTT against Zfp62	inactive: -0.227
GCCAAAAUCAUGGUGGAGATT against Mrgpra1	inactive: -1.38
GGAAAUGAAGGAACAUUACTT against Csmd1	inactive: 1.59
GGGAGGAUGUGACCUUUGATT against Tbc1d13	inactive: -0.491
GGAGAGUUCUGUUUAGUUATT against Cul5	inactive: 0.114
GAACGACAACCCGAUAAUGTT against Ttc9c	inactive: -0.141
CCAUCACCGAAGUAAAAAATT against Tmsb15a	inactive: -0.622
GGACUCCAUACCACCAAUATT against Vmn2r29	inactive: 0.576
GGCCAGUCUGGGAUUUUUGTT against 1700084P21Rik	inactive: 0.683
CGUCCUGUCGGUAACAUUATT against Aff1	inactive: -0.417
GGAGAUUAUUACUUGAUGGTT against Exd2	inactive: 1.09
GGCCAUUUGUAUGUGCACCTT against Tgfbr1	inactive: -0.806
GGAACCAACAGAGAAAACUTT against Hr	inactive: 0.317
GCGGUGUGCUGGAUAAUUCTT against Vit	inactive: -1.63
GCAAGUGUCUUGUCCCAGGTT against Adgra1	inactive: 0.348
GGUCAAGAAAUGGAAGCUGTT against Cbarp	inactive: -1.25
GCUAUACAAAGGCUACUCUTT against Hectd3	inactive: 0.379
GCAGAACAUCCGUUCUCAGTT against Pih1d1	inactive: -1.85
GGCCAUGAACUUUGAAGAGTT against Uap1	inactive: 1.4
GCAAGGUCCUUAACGGCAATT against Inpp1	inactive: -0.276
GGAGACUACUUUGUGUUUUTT against Ermp1	inactive: 0.933
GCUGGGAUGGUAUCGUUUCTT against Ripk2	inactive: 0.559

Taken from above.
GGAGACUACUUUGUGUUUUTT against Ermp1 – z-score: inactive: 0.933
GGAGAUUAUUACUUGAUGGTT against Exd2 – z-score: inactive: 1.09
GAACGACAACCCGAUAAUGTT against Ttc9c – z-score: inactive: -0.141
GGUCAAGAAAUGGAAGCUGTT against Cbarp – z-score: inactive: -1.25
GCAAGUGUCUUGUCCCAGGTT against Adgra1 – z-score: inactive: 0.348
